This is one part of the list. These are further read-outs of the screen, such as a control signal, another cell line or another target. No call is given for them. Compounds called inactive in the main read-out are mostly missing here. Potencies come from curve fits of mixed quality, noted in brackets.
Experiment: qHTS Assay for Lipid Storage Modulators in Drosophila S3 Cells;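 on cell number change: cells counted by Cell Tracker Red CMTPX staining in the red channel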
Details: BODIPY lipid droplet fluorescence, 18-24 h; for cell number change: measured here: cell count max response, cells fed with added oleic acid
Procedure, shortened: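 Drosophila S3 cells got compounds at several concentrations plus oleic acid (400 uM solution). Laser-scanning cytometry with 488 nm excitation read lipid droplets at 500-530 nm and cells at 575-640 nm. Percent activity was relative to 20 uM Triacsin C.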

[1] = measured here: cell number channel AC50, cells fed with added oleic acid
[2] = measured here: lipid fluorescence (Fed channel) AC50, cells fed with added oleic acid

Which results are given for O=[N+]([O-])c1cnc(Sc2ccncn2)s1?
cell number change: -55.7%; AC50 [1]: 2.59 µM [falling, full curve]; AC50 [2]: 3.66 µM [falling, partial curve]

With CC(C)c1ccc(C2c3[nH]c4ccccc4c3C[C@H]3C(=O)N(c4ccccc4C(=O)N4CCC[C@H]4C(=O)O)C(=O)N23)cc1 (some centres not stated) as the compound, how does the cell number change read?
The cell number change was 1.91%.

What about the AC50 [2] of the same compound?
Its AC50 is 0.13 µM [falling, full curve, poor fit].

With CCc1cccc(CC)c1NC(=O)Cn1c(-c2ccc(F)cc2)noc1=O as the compound, how does the cell number change read?
Its cell number change is -16.3%.

And the AC50 [2]?
Its AC50 is 18.4 µM [falling, single point].

With CC(C)c1ccc(N(C(=O)c2cc3ccccc3oc2=O)C2C=CS(=O)(=O)C2)cc1 (configuration not stated) as the compound, how does the cell number change read?
The cell number change was -9.79%.

And the AC50 [2]?
Its AC50 is 10.3 µM [falling, partial curve, poor fit].

Which results are given for COc1ccc(CN(CCC#N)C(=S)NC(=O)c2ccccc2)cc1?
cell number change: -2.75%; AC50 [2]: 1.46 µM [rising, partial curve]

For O=C(Nc1nc(-c2ccc(Cl)cc2)cs1)c1cccnc1, which cell number change is on record?
Its cell number change is 13.6%.

Which results are given for CN=Cc1cc(-c2ccccc2)sc1O?
cell number change: -43.9%; AC50 [1]: 29.1 µM [falling, single point]

With O=C(COc1ccccc1F)Nc1nnc(-c2ccncc2)s1 as the compound, how does the AC50 [2] read?
The AC50 was 0.13 µM [rising, full curve, poor fit].

Which results are given for COc1ccc(C)cc1NC(=O)c1ccc(S(=O)(=O)N2CCCCC2)cc1?
cell number change: 35.7%; AC50 [1]: 29.1 µM [rising, single point]

Which cell number change does the source give for N#C/C(=C\c1ccc(F)cc1)C(=O)NC1CCS(=O)(=O)C1 (configuration not stated) here?
Its cell number change is -24.4%.

What about the AC50 [1] of the same compound?
Its AC50 is 0.00517 µM [falling, full curve, poor fit].

What does the source list for O=C(COC(=O)c1nc(Cl)ccc1Cl)NC1CCCCC1?
cell number change: -25.2%; AC50 [2]: 29.1 µM [falling, single point]

Which cell number change does the source give for Cc1ccc(S(=O)(=O)N2CCC(C(=O)NCCCN3CCCCCC3)CC2)cc1 here?
The cell number change was -32.8%.

And the AC50 [1]?
Its AC50 is 0.00517 µM [falling, full curve, poor fit].

And the AC50 [2]?
Its AC50 is 14.6 µM [falling, partial curve, poor fit].

For COc1ccccc1Oc1nc2c(c(=O)n(Cc3ccccc3F)c(=O)n2C)n1C, which cell number change is on record?
The cell number change was -2.9%.

Which results are given for O=C(N/C(=C/c1ccccc1F)C(=O)N1CCCCC1)c1ccccc1?
cell number change: -11.4%; AC50 [2]: 29.1 µM [rising, partial curve, poor fit]

Which cell number change does the source give for CCn1c(-c2ccc(OC)c(OC)c2)n[nH]c1=S here?
Its cell number change is -2.98%.

And the AC50 [2]?
Its AC50 is 14.6 µM [rising, partial curve, poor fit].

Which cell number change does the source give for O=C(c1ccc(F)c(S(=O)(=O)N2CCOCC2)c1)N1CCN(c2ncccn2)CC1 here?
The cell number change was 3.71%.

What about the AC50 [2] of the same compound?
Its AC50 is 2.06 µM [rising, partial curve, poor fit].

With COc1ccc2nc(N/C(N)=N/C(=S)Nc3c(C)cccc3C)nc(C)c2c1 as the compound, how does the cell number change read?
The cell number change was -31%.

And the AC50 [1]?
Its AC50 is 29.1 µM [falling, single point].

What about the AC50 [2] of the same compound?
Its AC50 is 29.1 µM [falling, single point].

With COC(=O)N/N=C/c1cc(N=Nc2ccccc2Cl)ccc1O as the compound, how does the cell number change read?
Its cell number change is -6.9%.

What about the AC50 [2] of the same compound?
Its AC50 is 0.116 µM [falling, full curve, poor fit].

What does the source list for Cc1ccsc1C(=O)N1CCN(C(=O)c2ccco2)CC1?
cell number change: -22%; AC50 [2]: 32.6 µM [falling, partial curve, poor fit]

For COc1ccc(-c2[nH]ncc2/C=C(/C#N)C(=O)NC2CCCCCC2)cc1, which cell number change is on record?
The cell number change was -38.3%.

And the AC50 [1]?
The AC50 was 29.1 µM [falling, single point].

Which results are given for O=C(OCC(=O)N1CCCC1)c1ccccc1C(=O)c1ccccc1?
cell number change: 23.4%; AC50 [1]: 0.731 µM [falling, single point]; AC50 [2]: 0.731 µM [falling, partial curve]

Which cell number change does the source give for CCN(CC)CCCNC(=S)N(Cc1ccco1)Cc1cc2cc3c(cc2[nH]c1=O)OCCO3 here?
The cell number change was 77%.

And the AC50 [1]?
The AC50 was 3.66 µM [rising, full curve, poor fit].

And the AC50 [2]?
The AC50 was 6.51 µM [rising, partial curve].

Which cell number change does the source give for COCCn1c(COc2ccc(Cl)cc2)nnc1SCC(N)=O here?
Its cell number change is -158%.

And the AC50 [1]?
Its AC50 is 25.9 µM [falling, partial curve].

What about the AC50 [2] of the same compound?
The AC50 was 20.6 µM [falling, partial curve].

With COc1ccc(C)cc1N(C)C(=O)c1coc(=O)c2ccccc12 as the compound, how does the cell number change read?
Its cell number change is -0.212%.

What about the AC50 [2] of the same compound?
The AC50 was 29.1 µM [rising, single point].

Which cell number change does the source give for COc1ccccc1NS(=O)(=O)c1ccc2ccccc2c1 here?
Its cell number change is 5.56%.

With Cc1cc(C(=O)COC(=O)CNC(=O)c2ccc(F)cc2)c(C)n1Cc1ccco1 as the compound, how does the AC50 [1] read?
The AC50 was 0.58 µM [rising, single point].

With Cc1ccc(CCC(=O)Nc2ccc([N+](=O)[O-])cc2Cl)o1 as the compound, how does the cell number change read?
Its cell number change is -7.14%.

And the AC50 [2]?
Its AC50 is 29.1 µM [falling, single point].

Which results are given for O=C1C=C(c2cccc(Br)c2)C[C@@H](c2ccc(F)cc2)C1?
cell number change: -12.2%; AC50 [1]: 0.058 µM [falling, full curve, poor fit]; AC50 [2]: 29.1 µM [falling, single point]

With COc1ccc(CNc2cc(C)ccn2)c(O)c1 as the compound, how does the cell number change read?
The cell number change was -15.2%.

What about the AC50 [2] of the same compound?
Its AC50 is 29.1 µM [falling, single point].

Which AC50 [2] does the source give for O=C(COC(=O)c1ccc(S(=O)(=O)NCc2ccco2)cc1)NCC1CCCCC1 here?
The AC50 was 18.4 µM [falling, partial curve].

What does the source list for CCNc1ccc(C2(O)C(=O)c3ccccc3C2=O)cc1?
cell number change: 29.2%; AC50 [2]: 4.61 µM [falling, single point]

With CCOc1nc(Nc2ccc(OC)cc2)nc(N2CCOCC2)n1 as the compound, how does the cell number change read?
The cell number change was 27.4%.

What about the AC50 [2] of the same compound?
The AC50 was 0.326 µM [rising, full curve].

Which cell number change does the source give for Cc1oc2c(c(C)cc3oc(=O)c(CC(=O)NCC(=O)NCC(=O)NCC(C)O)c(C)c32)c1C (configuration not stated) here?
Its cell number change is 7.04%.

What about the AC50 [2] of the same compound?
Its AC50 is 29.1 µM [rising, partial curve].

For O=C(Nc1cc(C(F)(F)F)ccc1N1CCCC1)C1=COCCO1, which cell number change is on record?
Its cell number change is -44.3%.

What about the AC50 [1] of the same compound?
The AC50 was 29.1 µM [falling, single point].

What about the AC50 [2] of the same compound?
Its AC50 is 29.1 µM [falling, single point].

Which cell number change does the source give for O=C(Nc1ccc(S(=O)(=O)NC2=NCCCCC2)cc1)c1ccc(=O)[nH]c1 here?
The cell number change was -102%.

With COCCN1C(=O)C(=O)/C(=C(/O)c2ccc3c(c2)OCCO3)C1c1ccc(C(=O)OC)cc1 (configuration not stated) as the compound, how does the cell number change read?
The cell number change was 13.6%.

And the AC50 [2]?
The AC50 was 0.731 µM [falling, single point].

Which cell number change does the source give for COC(=O)[C@H](CCSC)NC(=O)NCc1cccs1 here?
The cell number change was 1.11%.

And the AC50 [2]?
The AC50 was 1.16 µM [falling, full curve].

With COc1ccc2oc(=O)c(C(=O)N3CCCc4ccccc43)cc2c1 as the compound, how does the cell number change read?
The cell number change was 67.7%.

What about the AC50 [1] of the same compound?
Its AC50 is 13 µM [rising, partial curve].

What about the AC50 [2] of the same compound?
Its AC50 is 18.4 µM [rising, partial curve].

With CCOc1cccc(CN2CCCC(N3CCN(c4cccc(Cl)c4)CC3)C2)c1O (configuration not stated) as the compound, how does the cell number change read?
The cell number change was 5.22%.

What about the AC50 [2] of the same compound?
The AC50 was 6.51 µM [rising, single point].

With C=CCNC(=S)N/N=C(\C)c1ccc(-n2ccnc2)cc1 as the compound, how does the cell number change read?
The cell number change was 34.4%.

What about the AC50 [2] of the same compound?
Its AC50 is 2.91 µM [rising, full curve].

Which cell number change does the source give for O=C(CSc1nncs1)Nc1cc(-c2ccccc2)nn1-c1ccccc1 here?
Its cell number change is 6.82%.

And the AC50 [2]?
The AC50 was 0.291 µM [rising, full curve].

Which results are given for COc1ccc(CNC(=O)C2CC(c3ccc(OC)cc3)=NO2)cc1 (configuration not stated)?
cell number change: -51.5%; AC50 [1]: 9.2 µM [falling, partial curve, poor fit]; AC50 [2]: 0.0164 µM [falling, full curve, poor fit]

Which cell number change does the source give for CCOC(=O)c1c(C)[nH]c(C(=O)OCC(=O)N(C)C2CCS(=O)(=O)C2)c1C (configuration not stated) here?
The cell number change was 0.34%.

What about the AC50 [2] of the same compound?
The AC50 was 0.326 µM [rising, full curve, poor fit].

For Cn1c(=O)c2cc(S(=O)(=O)Nc3ccc4c(c3)OCO4)ccc2n(C)c1=O, which AC50 [1] is on record?
Its AC50 is 4.11 µM [rising, single point].

For Cc1ccc2[nH]c3c(NCc4ccco4)ncnc3c2c1, which cell number change is on record?
The cell number change was -35.4%.

What about the AC50 [1] of the same compound?
The AC50 was 8.2 µM [falling, partial curve].

And the AC50 [2]?
Its AC50 is 0.146 µM [rising, full curve, poor fit].

Which cell number change does the source give for CCOc1ccc(NC(=O)COC(=O)C2C3CC4OC(=O)C2C4C3)cc1 (configuration not stated) here?
The cell number change was -12.4%.

With CC(Oc1ccc(F)cc1)C(=O)Nc1cc(S(=O)(=O)N2CCOCC2)ccc1N1CCCC1 (configuration not stated) as the compound, how does the AC50 [1] read?
The AC50 was 7.31 µM [falling, single point].

With CC(=O)NNc1nc(-c2ccccc2)cs1 as the compound, how does the cell number change read?
The cell number change was 0.294%.

And the AC50 [1]?
Its AC50 is 4.61 µM [falling, single point].

What about the AC50 [2] of the same compound?
The AC50 was 4.11 µM [falling, single point].

Which cell number change does the source give for O=C(CCCn1c(=S)[nH]c2cc3c(cc2c1=O)OCO3)N1CCc2ccccc2C1 here?
Its cell number change is -69.9%.

What about the AC50 [1] of the same compound?
Its AC50 is 29.1 µM [falling, single point].

With O=C1Nc2ccccc2C1=Nc1cccc([N+](=O)[O-])c1 as the compound, how does the cell number change read?
The cell number change was 12.9%.

What does the source list for CCOc1ccc(COC(=O)C2CC(=O)N(CCc3ccccc3)C2)cc1OC (configuration not stated)?
cell number change: 1.01%; AC50 [1]: 3.26 µM [rising, single point]

Which results are given for COc1ccc(S(=O)(=O)NCCCCNS(=O)(=O)c2ccc(OC)cc2)cc1?
cell number change: -32.3%; AC50 [1]: 23.1 µM [falling, single point]; AC50 [2]: 18.4 µM [rising, single point]

Which cell number change does the source give for CCOC(=O)c1ccc(S(=O)(=O)N2CCN(C(=O)c3cc(=O)c4ccccc4o3)CC2)cc1 here?
Its cell number change is 24.9%.

What about the AC50 [1] of the same compound?
Its AC50 is 0.731 µM [rising, full curve, poor fit].

For O=C(CSc1ccc2ccccc2n1)N/N=C/c1ccccc1O, which cell number change is on record?
Its cell number change is -10.7%.

And the AC50 [2]?
Its AC50 is 1.64 µM [rising, partial curve].

For Cc1nc2ncnn2c(C)c1Cc1ccccc1Cl, which cell number change is on record?
The cell number change was 1.84%.

For O=C(Nc1ccon1)c1sc2ccccc2c1Cl, which AC50 [2] is on record?
The AC50 was 0.58 µM [rising, single point].

With COc1cc(OC)cc(OCC(O)Cn2cnc3cc(C)c(C)cc32)c1 (configuration not stated) as the compound, how does the cell number change read?
The cell number change was 2.92%.

And the AC50 [2]?
The AC50 was 8.2 µM [falling, single point].

For OC(CN1CCN(C(c2ccccc2)c2ccccc2)CC1)c1ccc(Br)cc1 (configuration not stated), which cell number change is on record?
Its cell number change is -56.5%.

And the AC50 [1]?
The AC50 was 16.4 µM [falling, partial curve].

And the AC50 [2]?
The AC50 was 13 µM [falling, partial curve].
